For the experiment, the target named is FLAG-tagged FTO (fat mass of obesity-associated protein) (UniProt Q9C0B1). As to the kind of experiment: co-IP; co-IP of MIS12 and FLAG-FTO in HEK293T cells.

Sequences of proteins named here, by UniProt entry; tags and fusion partners are left off.
UniProt Q9H081: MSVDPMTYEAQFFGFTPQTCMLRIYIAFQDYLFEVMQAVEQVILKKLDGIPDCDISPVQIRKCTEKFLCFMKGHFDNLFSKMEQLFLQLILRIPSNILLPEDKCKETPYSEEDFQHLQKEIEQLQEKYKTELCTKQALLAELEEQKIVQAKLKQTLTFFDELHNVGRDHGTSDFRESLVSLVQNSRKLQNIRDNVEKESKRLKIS

These are yes or no findings as the source states them, for the method shown. Binding seen in cells or lysates may run through a third protein. Some results given as binding are weak or reduced against the parent protein; the word gives no strength.

We go through one substance from paper PMC9243202.

For MIS12 (from UniProt Q9H081 1-205), the binding result is “binds”.
